# This is one part of the list.
# B1: MUB70 (Lactobacillus reuteri) (protein)
# chain: CVHVQYIDGETDQMLRQDDLDGYTDETIPYSTAEGIKKFEGDGYELFKDNFPAGEKFDNDDTNDQFYTVIF
# How the values were obtained:
# Assay in all cases: glycan array binding signal (z-score within array); higher = stronger binding
# Conditions in all cases: glycan notation: IUPAC condensed, linker removed
# [1] = target: GlcNAc(b1-3)Gal(b1-4)GlcNAc(b1-3)Gal(b1-4)GlcNAc(b1-3)Gal(b1-4)GlcNAc(b1-3)Gal(b1-4)GlcNAc(b1-2)[GlcNAc(b1-3)Gal(b1-4)GlcNAc(b1-3)Gal(b1-4)GlcNAc(b1-3)Gal(b1-4)GlcNAc(b1-3)Gal(b1-4)GlcNAc(b1-6)]Man(a1-6)[GlcNAc(b1-3)Gal(b1-4)GlcNAc(b1-3)Gal(b1-4)GlcNAc(b1-3)Gal(b1-4)GlcNAc(b1-3)Gal(b1-4)GlcNAc(b1-2)Man(a1-3)]Man(b1-4)GlcNAc(b1-4)[Fuc(a1-6)]GlcNAc
# Method in brief: (§1)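 The binding signal is a Z-score computed within each array. Data were drawn from 3228 arrays in the Consortium for Functional Glycomics database, restricted to those with a known protein sequence. Scores were averaged over arrays of the same protein sequence at different concentrations or buffers, and over linkers, and negative values can be taken as non-binding.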
# [2] = target: GlcNAc(b1-3)Gal(b1-4)GlcNAc(b1-3)Gal(b1-4)GlcNAc(b1-3)GalNAc
# Method in brief: as §1
# [3] = target: GlcNAc(b1-3)Gal(b1-4)GlcNAc(b1-3)GalNAc
# Method in brief: as §1
# [4] = target: GlcNAc(b1-3)Gal(b1-4)GlcNAc(b1-3)[GlcNAc(b1-3)Gal(b1-4)GlcNAc(b1-3)]GalNAc
# Method in brief: as §1
# [5] = target: GlcNAc(b1-3)Gal(b1-4)GlcNAc(b1-6)[Gal(b1-3)]GalNAc
# Method in brief: as §1
# [6] = target: GlcNAc(b1-3)Gal(b1-4)GlcNAc(b1-6)[GlcNAc(b1-3)Gal(b1-3)]GalNAc
# Method in brief: as §1
# [7] = target: GlcNAc(b1-3)Gal(b1-4)GlcNAc(b1-6)[GlcNAc(b1-3)]Gal(b1-4)GlcNAc
# Method in brief: as §1
# GlcNAc(b1-3)GalNAc = target: GlcNAc(b1-3)GalNAc
# Method in brief: as §1
# GlcNAc(b1-3)Man = target: GlcNAc(b1-3)Man
# Method in brief: as §1
# [8] = target: GlcNAc(b1-3)[GlcNAc(b1-4)][GlcNAc(b1-6)]GlcNAc
# Method in brief: as §1
# [9] = target: GlcNAc(b1-3)[GlcNAc(b1-6)]Gal(b1-4)GlcNAc
# Method in brief: as §1
# [10] = target: GlcNAc(b1-3)[GlcNAc(b1-6)]GalNAc
# Method in brief: as §1
# [11] = target: GlcNAc(b1-4)Gal(b1-4)GlcNAc
# Method in brief: as §1
# GlcNAc(b1-4)GlcNAc = target: GlcNAc(b1-4)GlcNAc
# Method in brief: as §1
# [12] = target: GlcNAc(b1-4)GlcNAc(b1-4)GlcNAc
# Method in brief: as §1
# [13] = target: GlcNAc(b1-4)GlcNAc(b1-4)GlcNAc(b1-4)GlcNAc(b1-4)GlcNAc
# Method in brief: as §1
# [14] = target: GlcNAc(b1-4)GlcNAc(b1-4)GlcNAc(b1-4)GlcNAc(b1-4)GlcNAc(b1-4)GlcNAc
# Method in brief: as §1
# [15] = target: GlcNAc(b1-4)[GlcNAc(b1-6)]GalNAc
# Method in brief: as §1
# [16] = target: GlcNAc(b1-6)Gal(b1-4)GlcNAc
# Method in brief: as §1
# GlcNAc(b1-6)GalNAc = target: GlcNAc(b1-6)GalNAc
# Method in brief: as §1
# [17] = target: GlcNAc6S(b1-3)Gal(b1-4)GlcNAc
# Method in brief: as §1
# Kdn(a2-3)Gal(b1-3)GalNAc = target: Kdn(a2-3)Gal(b1-3)GalNAc
# Method in brief: as §1
# Kdn(a2-3)Gal(b1-3)GlcNAc = target: Kdn(a2-3)Gal(b1-3)GlcNAc
# Method in brief: as §1
# Kdn(a2-3)Gal(b1-4)Glc = target: Kdn(a2-3)Gal(b1-4)Glc
# Method in brief: as §1
# Kdn(a2-3)Gal(b1-4)GlcNAc = target: Kdn(a2-3)Gal(b1-4)GlcNAc
# Method in brief: as §1
# [18] = target: Kdn(a2-3)Gal(b1-4)[Fuc(a1-3)]GlcNAc
# Method in brief: as §1
# Kdn(a2-6)Gal(b1-4)GlcNAc = target: Kdn(a2-6)Gal(b1-4)GlcNAc
# Method in brief: as §1
# [19] = target: Man(a1-2)Man(a1-2)Man(a1-3)Man
# Method in brief: as §1
# [20] = target: Man(a1-2)Man(a1-2)Man(a1-6)[Man(a1-3)]Man
# Method in brief: as §1
# Man(a1-2)Man(a1-3)Man = target: Man(a1-2)Man(a1-3)Man
# Method in brief: as §1
# [21] = target: Man(a1-2)Man(a1-3)[Man(a1-2)Man(a1-6)]Man
# Method in brief: as §1
# [22] = target: Man(a1-2)Man(a1-3)[Man(a1-2)Man(a1-6)]Man(a1-6)[Man(a1-2)Man(a1-2)Man(a1-3)]Man
# Method in brief: as §1
# [23] = target: Man(a1-2)Man(a1-3)[Man(a1-2)Man(a1-6)]Man(a1-6)[Man(a1-2)Man(a1-2)Man(a1-3)]Man(b1-4)GlcNAc(b1-4)GlcNAc
# Method in brief: as §1
# [24] = target: Man(a1-2)Man(a1-3)[Man(a1-6)]Man(a1-6)[Man(a1-2)Man(a1-3)]Man(b1-4)GlcNAc(b1-4)GlcNAc
# Method in brief: as §1
# [25] = target: Man(a1-2)Man(a1-6)[Man(a1-3)]Man(a1-6)[Man(a1-2)Man(a1-2)Man(a1-3)]Man
# Method in brief: as §1
# [26] = target: Man(a1-2)Man(a1-6)[Man(a1-3)]Man(a1-6)[Man(a1-2)Man(a1-2)Man(a1-3)]Man(b1-4)GlcNAc(b1-4)GlcNAc
# Method in brief: as §1
# Man(a1-3)[Man(a1-6)]Man = target: Man(a1-3)[Man(a1-6)]Man
# Method in brief: as §1
# [27] = target: Man(a1-3)[Man(a1-6)]Man(a1-6)[Man(a1-2)Man(a1-3)]Man(b1-4)GlcNAc(b1-4)GlcNAc
# Method in brief: as §1
# [28] = target: Man(a1-3)[Man(a1-6)]Man(a1-6)[Man(a1-3)]Man
# Method in brief: as §1
# [29] = target: Man(a1-3)[Man(a1-6)]Man(a1-6)[Man(a1-3)]Man(b1-4)GlcNAc(b1-4)GlcNAc
# Method in brief: as §1
# [30] = target: Man(a1-3)[Man(a1-6)]Man(b1-4)GlcNAc(b1-4)GlcNAc
# Method in brief: as §1
# [31] = target: Man(a1-3)[Man(a1-6)]Man(b1-4)GlcNAc(b1-4)[Fuc(a1-6)]GlcNAc
# Method in brief: as §1
# Man(a1-6)Man = target: Man(a1-6)Man
# Method in brief: as §1
# Man(b1-4)GlcNAc = target: Man(b1-4)GlcNAc
# Method in brief: as §1
# MurNAc(b1-4)GlcNAc = target: MurNAc(b1-4)GlcNAc
# Method in brief: as §1
binder,measurement,setting,value
B1,glycan array binding signal (z-score),[1],0.318
same,glycan array binding signal (z-score),[2],-0.258
same,glycan array binding signal (z-score),[3],0.373
same,glycan array binding signal (z-score),[4],0.172
same,glycan array binding signal (z-score),[5],0.191
same,glycan array binding signal (z-score),[6],0.645
same,glycan array binding signal (z-score),[7],-0.335
same,glycan array binding signal (z-score),GlcNAc(b1-3)GalNAc,-0.402
same,glycan array binding signal (z-score),GlcNAc(b1-3)Man,-0.087
same,glycan array binding signal (z-score),[8],-0.31
same,glycan array binding signal (z-score),[9],-0.351
same,glycan array binding signal (z-score),[10],0.148
same,glycan array binding signal (z-score),[11],0.442
same,glycan array binding signal (z-score),GlcNAc(b1-4)GlcNAc,-0.21
same,glycan array binding signal (z-score),[12],-0.394
same,glycan array binding signal (z-score),[13],-0.275
same,glycan array binding signal (z-score),[14],-0.508
same,glycan array binding signal (z-score),[15],-0.025
same,glycan array binding signal (z-score),[16],0.571
same,glycan array binding signal (z-score),GlcNAc(b1-6)GalNAc,-0.234
same,glycan array binding signal (z-score),[17],0.247
same,glycan array binding signal (z-score),Kdn(a2-3)Gal(b1-3)GalNAc,0.066
same,glycan array binding signal (z-score),Kdn(a2-3)Gal(b1-3)GlcNAc,-0.507
same,glycan array binding signal (z-score),Kdn(a2-3)Gal(b1-4)Glc,0.004
same,glycan array binding signal (z-score),Kdn(a2-3)Gal(b1-4)GlcNAc,-0.601
same,glycan array binding signal (z-score),[18],-0.04
same,glycan array binding signal (z-score),Kdn(a2-6)Gal(b1-4)GlcNAc,0.34
same,glycan array binding signal (z-score),[19],0.872
same,glycan array binding signal (z-score),[20],-0.556
same,glycan array binding signal (z-score),Man(a1-2)Man(a1-3)Man,-0.605
same,glycan array binding signal (z-score),[21],-0.952
same,glycan array binding signal (z-score),[22],0.173
same,glycan array binding signal (z-score),[23],-0.427
same,glycan array binding signal (z-score),[24],-0.759
same,glycan array binding signal (z-score),[25],-0.778
same,glycan array binding signal (z-score),[26],0.042
same,glycan array binding signal (z-score),Man(a1-3)[Man(a1-6)]Man,-0.052
same,glycan array binding signal (z-score),[27],0.33
same,glycan array binding signal (z-score),[28],-0.728
same,glycan array binding signal (z-score),[29],-1.04
same,glycan array binding signal (z-score),[30],-0.322
same,glycan array binding signal (z-score),[31],-0.043
same,glycan array binding signal (z-score),Man(a1-6)Man,-0.195
same,glycan array binding signal (z-score),Man(b1-4)GlcNAc,-0.23
same,glycan array binding signal (z-score),MurNAc(b1-4)GlcNAc,-0.448

# Given bar-delimited: part of the list above.
binder | measurement | setting | value
B1 | glycan array binding signal (z-score) | [8] | -0.31
same | glycan array binding signal (z-score) | [9] | -0.351
same | glycan array binding signal (z-score) | [10] | 0.148
